PubChem BioAssay AID330 (DTP/NCI, 2004)
The list shows only some results of the screen, not a fair sample: it is rich in T/C values a quarter to a half above the control, in often repeated tests (any T/C) and in doses without a T/C. Further doses and runs are listed elsewhere. T/C gives the treated animals as a percentage of the vehicle group. Some doses have a count of surviving animals in place of a T/C: the source holds a T/C of zero for them, seemingly a mark for toxic or unscored doses. Some survivor counts are full or nearly so, which does not show that the dose was tolerated: survival well below the control is almost never listed, so the zero probably covers shortened survival too. Survivors were counted at the toxicity check, usually on the fifth day, unless a day is given; later deaths do not show. Schedules are NCI's codes, read here as Q, the interval in days (D) or hours (H), X, the number of doses. Some structures stand for samples that the source files as different forms (salt, stereo form or complex); doses refer to the form tested. Where survival is the endpoint, the PubChem record calls one and a half times the control and up active, and a quarter to a half above the control has no call in these data; cut-offs in other NCI protocols can differ. Additions like (4×) count equal records among those shown. Some entries hold several experiments; the results are listed from low to high.

Tested on: P388 leukemia ip, CD2F1 mice, survival T/C
Assay: NCI In Vivo Anticancer Drug Screen. Data for tumor model P388 Leukemia (intraperitoneal) in CD2F1 (CDF1) mice
Details: T/C endpoint: median survival time, higher T/C = longer survival
[1] = dose: 50.0 mg/kg/injection, schedule: Q01DX009 (ip), vehicle: Klucel (hydroxypropylcellulose) (HPC)
[2] = dose: 100.0 mg/kg/injection, schedule: Q01DX009 (ip), vehicle: Klucel (hydroxypropylcellulose) (HPC)
[3] = dose: 200.0 mg/kg/injection, schedule: Q01DX009 (ip), vehicle: Klucel (hydroxypropylcellulose) (HPC)
[4] = dose: 50.0 mg/kg/injection, schedule: Q01DX009 (ip), vehicle: saline
[5] = dose: 200.0 mg/kg/injection, schedule: Q04DX003 (ip), vehicle: water
[6] = dose: 50.0 mg/kg/injection, schedule: Q01DX009 (ip), vehicle: saline with Tween-80
[7] = dose: 100.0 mg/kg/injection, schedule: Q01DX009 (ip), vehicle: saline with Tween-80
[8] = dose: 200.0 mg/kg/injection, schedule: Q01DX009 (ip), vehicle: saline with Tween-80
[9] = dose: 200.0 mg/kg/injection, schedule: Q01DX005 (ip), vehicle: Klucel (hydroxypropylcellulose) (HPC)
[10] = dose: 25.0 mg/kg/injection, schedule: Q01DX005 (ip), vehicle: saline with Tween-80
[11] = dose: 50.0 mg/kg/injection, schedule: Q01DX005 (ip), vehicle: saline with Tween-80

Question: With CC1=C(C)C(=O)O[C@@H]([C@](C)(O)[C@]2(O)CC[C@@]3(O)[C@@H]4C[C@H]5O[C@]56CC=CC(=O)[C@]6(C)[C@H]4CC[C@]23C)C1 as the compound, how does the T/C (dose: 12.5 mg/kg/injection, schedule: Q01DX009 (ip), vehicle: Klucel (hydroxypropylcellulose) (HPC)) read?
Answer: 133 % of control

Question: What about the T/C (dose: 12.5 mg/kg/injection, schedule: Q04DX003 (ip), vehicle: Klucel (hydroxypropylcellulose) (HPC)) of the same compound?
Answer: 125 % of control

Question: What about the T/C (dose: 25.0 mg/kg/injection, schedule: Q01DX009 (ip), vehicle: Klucel (hydroxypropylcellulose) (HPC)) of the same compound?
Answer: 142 % of control

Question: And the T/C (dose: 25.0 mg/kg/injection, schedule: Q04DX003 (ip), vehicle: Klucel (hydroxypropylcellulose) (HPC))?
Answer: 125 and 128 % of control

Question: What about the T/C [1] of the same compound?
Answer: 142 % of control

Question: And the survivor count [1]?
Answer: 6 of 6

Question: What about the T/C (dose: 50.0 mg/kg/injection, schedule: Q04DX003 (ip), vehicle: Klucel (hydroxypropylcellulose) (HPC)) of the same compound?
Answer: 134 % of control

Question: What about the survivor count [2] of the same compound?
Answer: 2 of 6

Question: What about the T/C (dose: 100.0 mg/kg/injection, schedule: Q04DX003 (ip), vehicle: Klucel (hydroxypropylcellulose) (HPC)) of the same compound?
Answer: 131 and 134 % of control

Question: What about the survivor count [3] of the same compound?
Answer: 3 of 6

Question: And the T/C (dose: 200.0 mg/kg/injection, schedule: Q04DX003 (ip), vehicle: Klucel (hydroxypropylcellulose) (HPC))?
Answer: 137 and 142 % of control

Question: How did the survivor count (dose: 25.0 mg/kg/injection, schedule: Q01DX009 (ip), vehicle: distilled water + Tween-80) turn out when CNC(=O)OCc1nn(-c2ccc(Cl)cc2)c(C)c1COC(=O)NC was run?
Answer: 6 of 6

Question: What about the survivor count (dose: 50.0 mg/kg/injection, schedule: Q01DX009 (ip), vehicle: distilled water + Tween-80) of the same compound?
Answer: 6 of 6

Question: C/C=C/C(C#N)O[Si](C)(C)C (centres undefined) was tested. Which survivor count (dose: 60.0 mg/kg/injection, schedule: Q01DX005 (ip), vehicle: saline) did it give?
Answer: 0 of 6

Question: What about the survivor count (dose: 120.0 mg/kg/injection, schedule: Q01DX005 (ip), vehicle: saline) of the same compound?
Answer: 0 of 6

Question: What about the survivor count (dose: 240.0 mg/kg/injection, schedule: Q01DX005 (ip), vehicle: saline) of the same compound?
Answer: 0 of 6

Question: With BrCC[N+]12CC[N+](CCBr)(CC1)C2 as the compound, how does the T/C (dose: 12.5 mg/kg/injection, schedule: Q01DX009 (ip), vehicle: saline) read?
Answer: 134 % of control

Question: And the T/C (dose: 25.0 mg/kg/injection, schedule: Q01DX009 (ip), vehicle: saline)?
Answer: 131 and 143 % of control

Question: And the T/C [4]?
Answer: 145 % of control

Question: What about the T/C (dose: 200.0 mg/kg/injection, schedule: Q01DX009 (ip), vehicle: saline) of the same compound?
Answer: 129 % of control

Question: And the T/C [5]?
Answer: 142 % of control

Question: What about the survivor count (dose: 400.0 mg/kg/injection, schedule: Q01DX009 (ip), vehicle: saline) of the same compound?
Answer: 0 of 6

Question: And the survivor count (dose: 600.0 mg/kg/injection, schedule: Q04DX003 (ip), vehicle: water)?
Answer: 2 of 6

Question: Which survivor count [6] does the source give for O=C(CCCl)NN=C(c1ccccc1)c1ccccc1 here?
Answer: 5 of 6

Question: What about the survivor count [7] of the same compound?
Answer: 0 of 6

Question: What about the survivor count [8] of the same compound?
Answer: 0 of 6

Question: How did the survivor count (dose: 6.25 mg/kg/injection, schedule: Q01DX005 (ip), vehicle: Klucel (hydroxypropylcellulose) (HPC)) turn out when O=C1C=C(Cl)C(=O)C(c2ccccc2)=C1Cl was run?
Answer: 5 of 5

Question: What about the survivor count (dose: 50.0 mg/kg/injection, schedule: Q01DX005 (ip), vehicle: Klucel (hydroxypropylcellulose) (HPC)) of the same compound?
Answer: 4 of 5

Question: And the survivor count (dose: 100.0 mg/kg/injection, schedule: Q01DX005 (ip), vehicle: Klucel (hydroxypropylcellulose) (HPC))?
Answer: 2 of 5

Question: And the survivor count [9]?
Answer: 0 of 5

Question: For c1cc(-c2cc3cc(C4=NCCN4)ccc3s2)ccc1C1=NCCN1, which survivor count (dose: 100.0 mg/kg/injection, schedule: Q04DX003 (ip), vehicle: saline) is on record?
Answer: 2 of 6

Question: What about the survivor count (dose: 200.0 mg/kg/injection, schedule: Q04DX003 (ip), vehicle: saline) of the same compound?
Answer: 1 of 6

Question: What about the survivor count (dose: 400.0 mg/kg/injection, schedule: Q04DX003 (ip), vehicle: saline) of the same compound?
Answer: 0 of 6

Question: What does the source list for CCN1CCC(OC(=O)c2ccccc2)(c2nccc3ccccc23)CC1?
Answer: survivor count [7]: 3 of 6; survivor count [8]: 0 of 6

Question: How did the survivor count [4] turn out when CC1=CCCC(C(C)O)O1 (centres undefined) was run?
Answer: 6 of 6

Question: And the survivor count (dose: 100.0 mg/kg/injection, schedule: Q01DX009 (ip), vehicle: saline)?
Answer: 6 of 6

Question: How did the survivor count (dose: 240.0 mg/kg/injection, schedule: Q01DX005 (ip), vehicle: Klucel (hydroxypropylcellulose) (HPC)) turn out when CCOc1c(N=Nc2ccc(Cl)cc2)c(C)nn1C(=S)S was run?
Answer: 0 of 6

Question: For CCCCCCCCCCCCCCCCCC(=O)NCNC(=O)CCCCCCCCCCCCCCCCC, which survivor count (dose: 37.5 mg/kg/injection, schedule: Q04DX003 (ip), vehicle: saline) is on record?
Answer: 6 of 6

Question: How did the survivor count [10] turn out when CCN(CC)CCNc1ccc(COC(=O)OC)c2sc3ccccc3c(=O)c12 was run?
Answer: 6 of 6

Question: What about the survivor count [11] of the same compound?
Answer: 6 of 6

Question: CNC1CCc2cc(OC)ccc21 (centres undefined) was tested. Which survivor count (dose: 200.0 mg/kg/injection, schedule: Q01DX001 (ip), vehicle: Klucel (hydroxypropylcellulose) (HPC)) did it give?
Answer: 1 of 6

Question: O=[N+]([O-])c1ccc2c(c1)[S@@](=O)c1nc([N+](=O)[O-])cnc1N2 was tested. Which survivor count [9] did it give?
Answer: 0 of 6

Question: Which survivor count (dose: 100.0 mg/kg/injection, schedule: Q04DX003 (ip), vehicle: saline with Tween-80) does the source give for CC(=N/NC(=S)NCCN1CCCC1)/C(C)=N\NC(=S)NCCN1CCCC1 here?
Answer: 0 of 6

Question: What about the survivor count (dose: 200.0 mg/kg/injection, schedule: Q04DX003 (ip), vehicle: saline with Tween-80) of the same compound?
Answer: 0 of 6

Question: And the survivor count (dose: 400.0 mg/kg/injection, schedule: Q04DX003 (ip), vehicle: saline with Tween-80)?
Answer: 0 of 6

Question: Which survivor count (dose: 12.5 mg/kg/injection, schedule: Q04DX003 (ip), vehicle: saline) does the source give for S=C1CCNCC1 here?
Answer: 6 of 6

Question: With COc1c(OC(C)=O)c(OC(C)=O)cc2c1-c1ccc(OC)c(=O)cc1C(NC(C)=O)CC2 (centres undefined) as the compound, how does the T/C (dose: 1.0 mg/kg/injection, schedule: Q01DX005 (ip), vehicle: saline) read?
Answer: 133 % of control (2×)

Question: And the T/C (dose: 2.0 mg/kg/injection, schedule: Q01DX005 (ip), vehicle: saline)?
Answer: 145 and 146 % of control

Question: And the T/C (dose: 4.0 mg/kg/injection, schedule: Q01DX005 (ip), vehicle: saline)?
Answer: 142 % of control

Question: For O=c1ccc(=O)n(-c2ccccc2)[nH]1, which survivor count [6] is on record?
Answer: 2 of 6

Question: And the survivor count [7]?
Answer: 0 of 6

Question: And the survivor count [8]?
Answer: 0 of 6

Question: And the survivor count (dose: 400.0 mg/kg/injection, schedule: Q01DX009 (ip), vehicle: saline with Tween-80)?
Answer: 0 of 6

Question: For CC(=O)NS(=O)(=O)c1ccc(N)cc1, which T/C (dose: 200.0 mg/kg/injection, schedule: Q01DX009 (ip), vehicle: saline sonified) is on record?
Answer: 127 % of control

Question: Which survivor count [3] does the source give for O=c1[nH]c(=O)n(Cl)c(=O)n1Cl here?
Answer: 0 of 6

Question: How did the survivor count (dose: 100.0 mg/kg/injection, schedule: Q04DX003 (ip), vehicle: water) turn out when COc1cccc2c1C(=O)c1c(O)c3c(c(O)c1C2=O)CC(O)(C1(C)OCC(C)(C)CO1)CC3OC1CC(N)C(O)C(C)O1 (centres undefined) was run?
Answer: 0 of 6 on day 9

Question: And the survivor count [5]?
Answer: 0 of 6 on day 9

Question: With CC1(C)CC(=O)C(=[N+]=[N-])C(=O)C1 as the compound, how does the survivor count (dose: 60.0 mg/kg/injection, schedule: Q01DX005 (ip), vehicle: saline with Tween-80) read?
Answer: 2 of 6

Question: And the survivor count (dose: 120.0 mg/kg/injection, schedule: Q01DX005 (ip), vehicle: saline with Tween-80)?
Answer: 0 of 6

Question: And the survivor count (dose: 240.0 mg/kg/injection, schedule: Q01DX005 (ip), vehicle: saline with Tween-80)?
Answer: 0 of 6

Question: With CC(C)(C)OC(=O)NCCCCC(NC(=O)OCC1c2ccccc2-c2ccccc21)C(=O)O (centres undefined) as the compound, how does the survivor count [9] read?
Answer: 0 of 6

Question: COc1ccc(-c2nnc(-c3ccc(Cl)cc3)c(=O)[nH]2)cc1 was tested. Which survivor count [10] did it give?
Answer: 6 of 6

Question: And the survivor count [11]?
Answer: 6 of 6

Question: What about the survivor count (dose: 100.0 mg/kg/injection, schedule: Q01DX005 (ip), vehicle: saline with Tween-80) of the same compound?
Answer: 6 of 6

Question: And the survivor count (dose: 200.0 mg/kg/injection, schedule: Q01DX005 (ip), vehicle: saline with Tween-80)?
Answer: 6 of 6

Question: How did the survivor count (dose: 400.0 mg/kg/injection, schedule: Q01DX001 (ip), vehicle: Klucel (hydroxypropylcellulose) (HPC)) turn out when Nc1nc2ccccc2n1C(=O)C(F)(F)F was run?
Answer: 2 of 6

Question: For Cc1ccc(NC(=S)SCc2ccc3c(c2)OCO3)cc1Br, which T/C [1] is on record?
Answer: 125 % of control

Question: What about the T/C [2] of the same compound?
Answer: 132 % of control
